According to patent publication US10568819B2, “Skin enhancing compositions and methods” (Sytheon Limited, priority 2016, dated 2020):
At least one structure is not confirmed: it was looked up by name or label, or the drawing left a doubt.

Sequences of proteins named here, by UniProt entry; tags and fusion partners are left off.
UniProt P35228, whole entry, species assumed: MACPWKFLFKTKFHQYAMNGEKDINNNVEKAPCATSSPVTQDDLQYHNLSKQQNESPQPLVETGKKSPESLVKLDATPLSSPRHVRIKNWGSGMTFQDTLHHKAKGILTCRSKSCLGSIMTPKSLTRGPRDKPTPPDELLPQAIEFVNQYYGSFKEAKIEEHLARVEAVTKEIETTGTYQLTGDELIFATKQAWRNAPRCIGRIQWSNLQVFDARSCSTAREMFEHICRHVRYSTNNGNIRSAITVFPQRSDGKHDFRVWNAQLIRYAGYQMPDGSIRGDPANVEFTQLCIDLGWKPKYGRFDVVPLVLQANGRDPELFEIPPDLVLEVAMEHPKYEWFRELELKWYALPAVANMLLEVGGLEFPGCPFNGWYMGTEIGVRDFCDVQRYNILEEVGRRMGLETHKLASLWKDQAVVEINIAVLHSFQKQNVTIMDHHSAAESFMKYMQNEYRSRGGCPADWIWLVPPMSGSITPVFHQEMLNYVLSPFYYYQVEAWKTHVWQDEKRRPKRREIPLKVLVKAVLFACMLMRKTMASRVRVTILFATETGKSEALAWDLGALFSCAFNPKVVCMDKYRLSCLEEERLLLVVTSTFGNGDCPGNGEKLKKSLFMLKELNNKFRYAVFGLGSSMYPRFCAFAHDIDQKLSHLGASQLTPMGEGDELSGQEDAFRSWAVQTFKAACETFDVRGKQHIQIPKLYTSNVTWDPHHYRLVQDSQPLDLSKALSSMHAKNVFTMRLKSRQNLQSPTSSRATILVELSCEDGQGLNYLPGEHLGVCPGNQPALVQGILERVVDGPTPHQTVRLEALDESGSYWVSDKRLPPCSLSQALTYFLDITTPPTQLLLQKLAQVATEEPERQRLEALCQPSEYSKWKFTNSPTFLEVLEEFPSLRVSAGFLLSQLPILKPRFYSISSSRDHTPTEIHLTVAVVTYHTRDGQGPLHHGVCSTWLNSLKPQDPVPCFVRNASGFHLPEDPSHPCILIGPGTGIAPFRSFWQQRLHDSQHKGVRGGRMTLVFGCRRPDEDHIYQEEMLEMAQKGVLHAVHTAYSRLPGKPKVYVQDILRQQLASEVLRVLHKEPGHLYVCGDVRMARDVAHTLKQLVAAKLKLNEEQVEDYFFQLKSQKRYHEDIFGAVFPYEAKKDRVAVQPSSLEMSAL

How the values were obtained:
[1] = Antioxidant power: peroxynitrite
[2] = Antioxidant power: super oxide anion
iNOS = iNOS (Homo sapiens, UniProt P35228); test: Reduction of iNOS activity; format: biochemical; conditions: vs Zingerone
From the text: Accordingly, an investigation was undertaken to assess the efficacy of compounds according to the present teaching as compared to compounds that are closely structurally related thereto in inhibiting NO product.

elastin gene = test: Elastin gene regulation (elastin and MMP study, text); format: cell-based
[3] = Antioxidant power: hydroxyl radicals
[4] = Antioxidant power / quenching: singlet oxygen
[5] = Antioxidant power: peroxyl radicals
[6] = Lipid peroxidation, squalene substrate; format: biochemical; conditions: Squalene used as a substrate
[7] = test system: human dermal fibroblasts (HDF); test: General metabolism and proliferation of fibroblasts (collagen study); format: cell-based; conditions: at the tested concentration range (50, 100 μg/ml)
[8] = test system: ϕX-174 RF bacteriophage supercoiled DNA; test: UVA/AGE-albumin-induced DNA strand breaks (QPES); format: biochemical
Description: A study was undertaken to determine whether the aryl alkanones of the present invention have the ability to reduce photooxidative stress by physical Quencher of Photo-excited States (QPES) mechanism under UV light employing the method of Wondarak et al, (J Invest Dermatol, 119:489, 2002). Briefly, 100 ng (experiment 1) or 200 ng (experiment 2) of ϕX-174 RF bacteriophage supercoiled DNA was irradiated in the presence of […] of filtered glycated bovine serum albumin (20 mg/ml BSA reacted for 3 weeks with 180 mg/ml glucose at 37° C.) in a final volume of 100 μl. The irradiation was performed in a 96 well plate without lid, with UVA lamp (Ultra-lum UVA-28T at 6.4 mW/cm^2) for 2 h, delivering a total energy of […]. Following irradiation 10 μl of the reaction mixture was mixed with 2 μl of loading buffer, resolved in 1% agarose gel (at 90V for 20 min) and stained with ethidium bromide ([…]). The intact (supercoiled) lower (faster-migrating) band and the UVA-damaged (uncoiled) higher (slower-migrating) band were visualized using Hoefer transilluminator. Photographs of the gels were then processed using NIH ImageJ and ratio of unwound (damaged) to supercoiled (intact) bands was calculated and used to assess the protective activity of test materials.

COc1cc(CC(C(C)=O)C(C)=O)ccc1O [Compound 1, Acetyl Zingerone]
Antioxidant Power, Peroxynitrite [1]: 1,139 μmole Trolox Equivalent/gram
Antioxidant Power, Super oxide anion [2]: Not Detected
times more effective in reducing iNOS activity than Zingerone (iNOS): 2.5 times
regulation of the elastin gene (elastin gene): upregulates the elastin gene
Antioxidant Power, Hydroxyl radicals [3]: 19,114 μmole Trolox Equivalent/gram
Antioxidant Power, Singlet oxygen [4]: 7,180 μmole Trolox Equivalent/gram
Singlet oxygen quenching ([4]; ±10% error): 7,180 μMole Trolox Equivalent/g
Antioxidant Power, Peroxyl radicals [5]: 4,128 μmole Trolox Equivalent/gram
Lipid peroxidation IC50 value [6]: 0.48 µg/mL
stimulation of general metabolism and proliferation of fibroblasts [7]: failed to stimulate general metabolism and proliferation of fibroblasts
% DNA strand breaks ([8]; 0.003 μg/ml): 67%
% DNA strand protection ([8]; 0.003 μg/ml): 33%
% DNA strand breaks ([8]; 0.01 μg/ml): 53%
% DNA strand protection ([8]; 0.01 μg/ml): 47%
% DNA strand breaks ([8]; 0.03 μg/ml): 33%
% DNA strand protection ([8]; 0.03 μg/ml): 67%
% DNA strand breaks ([8]; 0.1 μg/ml): 15%
% DNA strand protection ([8]; 0.1 μg/ml): 85%
